Taken from: PubChem BioAssay AID1259405 (NCATS, 2018)
The whole screen tested about 50,000 reagents; below is a part drawn at random. About 4,000 of them (8%) count as active. 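Mouse siRNA library applied to hamster cells; one well for each siRNA.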 The numbers tell different reagents against one gene apart.

- Screen: 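Knock-downs that lift recombinant protein yield in hamster ovary cells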 (primary screen)
- Cell system: Chinese hamster CHO-K1 ovary cells with stable secreted eGFP expression
- Reagent: single siRNA against mouse genes, 0.8 pmol siRNA per well (2 µl of 400 nM stock)
- Timing: 3 days
- Measured: 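Percent of the per-plate non-targeting control median for intracellular GFP per well by laser scanning cytometry and for cell viability by ATP luminescence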
- Reading the numbers: GFP, % of control: higher = more GFP per well, higher productivity; viability (ATP), % of control: higher = more viable cells (more ATP)
- Call rule: 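a knock-down is called active if GFP reaches 120% or more of non-targeting control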

What did the screen give for Marchf5 (membrane associated ring-CH-type finger 5) #1?
GFP, % of control: 38; viability (ATP), % of control: 59.8; call: inactive

How did the screen score Marchf5 (membrane associated ring-CH-type finger 5) #2?
GFP, % of control: 11.9; viability (ATP), % of control: 19.1; call: inactive

For Marchf5 (membrane associated ring-CH-type finger 5) #3, what was measured?
GFP, % of control: 73.2; viability (ATP), % of control: 69.2; call: inactive

What did the screen give for Ppm1n (protein phosphatase, Mg2+/Mn2+ dependent, 1N (putative)) #1?
GFP, % of control: 132; viability (ATP), % of control: 88.3; call: active

What did the screen give for Ppm1n (protein phosphatase, Mg2+/Mn2+ dependent, 1N (putative)) #2?
GFP, % of control: 63.2; viability (ATP), % of control: 53.5; call: inactive

How did the screen score Ppm1n (protein phosphatase, Mg2+/Mn2+ dependent, 1N (putative)) #3?
GFP, % of control: 73.4; viability (ATP), % of control: 93.9; call: inactive

For Cep104 (centrosomal protein 104) #1, what does the deposit list?
GFP, % of control: 68; viability (ATP), % of control: 66.5; call: inactive

With Cep104 (centrosomal protein 104) #2, how do the results read?
GFP, % of control: 66.3; viability (ATP), % of control: 72.3; call: inactive

What is on record for Cep104 (centrosomal protein 104) #3?
GFP, % of control: 120; viability (ATP), % of control: 129; call: active

For Mtmr1 (myotubularin related protein 1) #1, how do the results read?
GFP, % of control: 111; viability (ATP), % of control: 82.8; call: inactive

With Mtmr1 (myotubularin related protein 1) #2, how do the results read?
GFP, % of control: 76.5; viability (ATP), % of control: 56.3; call: inactive

What did the screen give for Mtmr1 (myotubularin related protein 1) #3?
GFP, % of control: 98.1; viability (ATP), % of control: 98.8; call: inactive

Which result is listed for Cstf2t (cleavage stimulation factor, 3' pre-RNA subunit 2, tau) #1?
GFP, % of control: 75.3; viability (ATP), % of control: 72.4; call: inactive

What is on record for Cstf2t (cleavage stimulation factor, 3' pre-RNA subunit 2, tau) #2?
GFP, % of control: 78.5; viability (ATP), % of control: 69.7; call: inactive

With Cstf2t (cleavage stimulation factor, 3' pre-RNA subunit 2, tau) #3, how do the results read?
GFP, % of control: 85.3; viability (ATP), % of control: 82.3; call: inactive

For Firrm (FIGNL1 interacting regulator of recombination and mitosis) #1, what does the deposit list?
GFP, % of control: 82; viability (ATP), % of control: 90.7; call: inactive

What did the screen give for Firrm (FIGNL1 interacting regulator of recombination and mitosis) #2?
GFP, % of control: 102; viability (ATP), % of control: 83.7; call: inactive

For Firrm (FIGNL1 interacting regulator of recombination and mitosis) #3, what does the deposit list?
GFP, % of control: 78.6; viability (ATP), % of control: 70.7; call: inactive

3 entries from above, reduced to “viability (ATP), % of control”:
Cstf2t (cleavage stimulation factor, 3' pre-RNA subunit 2, tau) #1 = 72.4
Cstf2t (cleavage stimulation factor, 3' pre-RNA subunit 2, tau) #2 = 69.7
Cstf2t (cleavage stimulation factor, 3' pre-RNA subunit 2, tau) #3 = 82.3

More results follow.
For S1pr1 (sphingosine-1-phosphate receptor 1) #1, how do the results read?
GFP, % of control: 121; viability (ATP), % of control: 110; call: active

Which result is listed for S1pr1 (sphingosine-1-phosphate receptor 1) #2?
GFP, % of control: 74.1; viability (ATP), % of control: 62.3; call: inactive

With S1pr1 (sphingosine-1-phosphate receptor 1) #3, how do the results read?
GFP, % of control: 65.7; viability (ATP), % of control: 76.5; call: inactive

Which result is listed for Mybpc3 (myosin binding protein C, cardiac) #1?
GFP, % of control: 45.2; viability (ATP), % of control: 120; call: inactive

How did the screen score Mybpc3 (myosin binding protein C, cardiac) #2?
GFP, % of control: 128; viability (ATP), % of control: 74.9; call: active

What is on record for Orai3 (ORAI calcium release-activated calcium modulator 3) #1?
GFP, % of control: 71.9; viability (ATP), % of control: 55.3; call: inactive

For Orai3 (ORAI calcium release-activated calcium modulator 3) #2, how do the results read?
GFP, % of control: 97.4; viability (ATP), % of control: 92.3; call: inactive

How did the screen score Orai3 (ORAI calcium release-activated calcium modulator 3) #3?
GFP, % of control: 73.5; viability (ATP), % of control: 86.5; call: inactive

With Fimp1 (fertilization influencing membrane protein 1) #1, what was measured?
GFP, % of control: 66.9; viability (ATP), % of control: 29.5; call: inactive

With Fimp1 (fertilization influencing membrane protein 1) #2, how do the results read?
GFP, % of control: 73; viability (ATP), % of control: 55.7; call: inactive

With Fimp1 (fertilization influencing membrane protein 1) #3, what does the deposit list?
GFP, % of control: 97.6; viability (ATP), % of control: 104; call: inactive
